4 molecules from US20260035728A1 can be followed below.

The chains behind the UniProt entries cited, without tags or fusion partners. Where a name states a change or a piece, a line headed by the entry shows the natural chain unless it says otherwise. Residues count along the entry.
UniProt P40238: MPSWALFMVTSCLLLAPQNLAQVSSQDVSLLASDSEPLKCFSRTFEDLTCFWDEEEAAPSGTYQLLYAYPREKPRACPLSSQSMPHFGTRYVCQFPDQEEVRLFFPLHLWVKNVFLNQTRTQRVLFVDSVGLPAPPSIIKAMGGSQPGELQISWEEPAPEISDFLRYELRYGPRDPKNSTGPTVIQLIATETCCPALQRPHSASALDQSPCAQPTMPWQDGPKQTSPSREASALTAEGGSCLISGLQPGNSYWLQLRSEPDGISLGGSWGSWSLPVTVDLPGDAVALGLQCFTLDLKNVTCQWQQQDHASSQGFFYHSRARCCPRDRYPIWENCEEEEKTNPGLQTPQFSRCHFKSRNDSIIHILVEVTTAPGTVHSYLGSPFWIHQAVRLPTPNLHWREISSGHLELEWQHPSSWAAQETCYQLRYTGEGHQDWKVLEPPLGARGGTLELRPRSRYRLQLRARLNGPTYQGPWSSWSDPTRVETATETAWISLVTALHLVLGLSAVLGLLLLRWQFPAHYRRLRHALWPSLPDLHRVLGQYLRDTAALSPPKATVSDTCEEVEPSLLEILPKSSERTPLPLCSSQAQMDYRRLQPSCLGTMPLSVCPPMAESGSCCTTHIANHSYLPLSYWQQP
UniProt P00742, residues 41-488: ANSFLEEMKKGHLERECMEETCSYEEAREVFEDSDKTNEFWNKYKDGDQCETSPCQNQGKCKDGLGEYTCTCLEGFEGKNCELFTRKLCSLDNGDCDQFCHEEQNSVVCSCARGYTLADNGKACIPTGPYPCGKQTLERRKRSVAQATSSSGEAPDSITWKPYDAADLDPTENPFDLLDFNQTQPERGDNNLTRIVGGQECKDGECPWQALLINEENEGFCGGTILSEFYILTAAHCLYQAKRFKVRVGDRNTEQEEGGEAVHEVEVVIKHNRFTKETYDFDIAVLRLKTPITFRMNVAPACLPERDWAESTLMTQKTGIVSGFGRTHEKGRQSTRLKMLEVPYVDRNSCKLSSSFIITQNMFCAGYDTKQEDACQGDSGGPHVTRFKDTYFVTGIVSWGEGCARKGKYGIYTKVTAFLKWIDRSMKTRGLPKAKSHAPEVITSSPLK

Assay [1] concerns the target MG10-GST fusion protein (fusion protein of GST and MG10, Gln213 to Ala231 of human MpI) (human) (UniProt P40238). Description: affinity chromatography on MG10-GST fusion protein-immobilized column, elution with 100 mM Glycine-HCl (pH 3.5).
Assay [2] has the same target. Description: affinity chromatography on MG10-GST fusion protein-immobilized column.
The target in assay [3] is Factor X (Enzyme Research Laboratories) (UniProt P00742). Description: Factor X ELISA (FIG. 8). Background: ELISA stands for enzyme-linked immunosorbent assay.
For assay [4] the target is unchanged. Description: Factor X ELISA (FIG. 5).

No constants are given. Whether binding was seen depends on the method and setting. Some results given as binding are weak or reduced against the parent protein; the word gives no strength.

B1: humanized anti-human MpI antibody hVB22B u2-wz4 sc(Fv)2 (protein)
chain: QVQLVQSGPEVKKPGASVKVSCKASGYTFTNSWMNWVRQRPGKGLEWIGRIYPGDGETIYNGKFRVRVTITADESTSTAYMQLSSLRSEDTAVYYCARGYDDYSFAYWGQGTTVTVSSGGGGSGGGGSGGGGSDIVMTQSPLSLPVTPGEPASISCRSSKSLLHSNGNTYLYWFLQKPGQSPQLLIYRMSNLASGVPDRFSGSGSGTDFTLKISRVEAEDVGVYYCMQHIEYPFTFGQGTKLEIKGGGGSGGGGSGGGGSQVQLVQSGPEVKKPGASVKVSCKASGYTFTNSWMNWVRQRPGKGLEWIGRIYPGDGETIYNGKFRVRVTITADESTSTAYMQLSSLRSEDTAVYYCARGYDDYSFAYWGQGTTVTVSSGGGGSGGGGSGGGGSDIVMTQSPLSLPVTPGEPASISCRSSKSLLHSNGNTYLYWFLQKPGQSPQLLIYRMSNLASGVPDRFSGSGSGTDFTLKISRVEAEDVGVYYCMQHIEYPFTFGQGTKLEIK
Consider B1, for which, in assay [1], the binding entry is recorded as “binds”.

B2: hVB22B u2-wz4(v3) sc(Fv)2 (protein)
chain: QVQLVQSGPEVKKPGASVKVSCKASGYTFTNSWMNWVRERPGKGLEWIGRIYPGDGETIYNGKFRVRVTITADESTSTAYMQLSSLRSEDTAVYYCARGYDDYSFAYWGQGTTVTVSSGGGGSGGGGSGGGGSDIVMTQSPLSLPVTPGEPASISCRSSKSLLHSNGNTYLYWFLKKPGQSPQLLIYRMSNLASGVPDRFSGSGSGTDFTLKISRVEAEDVGVYYCMQHIEYPFTFGQGTKLEIKGGGGSGGGGSGGGGSQVQLVQSGPEVKKPGASVKVSCKASGYTFTNSWMNWVRKRPGKGLEWIGRIYPGDGETIYNGKFRVRVTITADESTSTAYMQLSSLRSEDTAVYYCARGYDDYSFAYWGQGTTVTVSSGGGGSGGGGSGGGGSDIVMTQSPLSLPVTPGEPASISCRSSKSLLHSNGNTYLYWFLEKPGQSPQLLIYRMSNLASGVPDRFSGSGSGTDFTLKISRVEAEDVGVYYCMQHIEYPFTFGQGTKLEIK
As for B2, the binding entry in assay [2] was “binds”.

B3: hVB22B u2-wz4(v1) sc(Fv)2 (protein)
chain: QVQLVQSGPEVKKPGASVKVSCKASGYTFTNSWMNWVRERPGKGLEWIGRIYPGDGETIYNGKFRVRVTITADESTSTAYMQLSSLRSEDTAVYYCARGYDDYSFAYWGQGTTVTVSSGGGGSGGGGSGGGGSDIVMTQSPLSLPVTPGEPASISCRSSKSLLHSNGNTYLYWFLEKPGQSPQLLIYRMSNLASGVPDRFSGSGSGTDFTLKISRVEAEDVGVYYCMQHIEYPFTFGQGTKLEIKGGGGSGGGGSGGGGSQVQLVQSGPEVKKPGASVKVSCKASGYTFTNSWMNWVRKRPGKGLEWIGRIYPGDGETIYNGKFRVRVTITADESTSTAYMQLSSLRSEDTAVYYCARGYDDYSFAYWGQGTTVTVSSGGGGSGGGGSGGGGSDIVMTQSPLSLPVTPGEPASISCRSSKSLLHSNGNTYLYWFLKKPGQSPQLLIYRMSNLASGVPDRFSGSGSGTDFTLKISRVEAEDVGVYYCMQHIEYPFTFGQGTKLEIK
In the case of B3, the binding entry in assay [2] was “binds”.

B4: humanized SB04 antibody (VH: hSB04e, VL: hSBVL-F3f), wild type (antibody, V domains shown)
VH: QVQLVQSGAEVKKPGASVKVSCKASGYTFTHFVLHWVRQAPGQGLEWMGYIIPYNDGTKYNEKFKGRVTMTSDTSTSTVYMELSILRSEDTAVYFCARGNRYDVGSYAMDYWGQGTTVTSVS
VL: DIVMTQSPDSLAVSLGERATINCKSSQSLLYSSNQKNYLAWYQQKPGQPPKLLIYWASTRESGVPDRFSGSGSGTDFTLKISRVQAEDVGVYYCQQYYRFPYTFGGGTKVEIK
Turning to B4, the binding entry in assay [3] and in assay [4] was “binds” each time.
